Whole data set: some 2,300 compounds, median “plate-normalized OD600 growth (mean of duplicates)” near 0.29, cut for the lowest 2% near 0.22. The list shows a part of the results.
Test system: Escherichia coli BW25113
Experiment: plate-normalized OD600 growth (mean of duplicates) (OD600 (normalized)); higher = more growth (less inhibition)
Conditions: 10 µM
Description: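 E. coli BW25113 in LB (100 µl, 96-well, no shaking) was exposed to 10 µM of each compound from a ~30,000-member library and grown at 37°C for 24 h or 15°C for 48 h, in duplicate. Growth was read as OD600 and the duplicate ODs were normalized across screening plates to correct plate-to-plate variation. Hits were >3σ below the mean OD600 at 15°C and <2σ below the mean at 37°C.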

Compound | plate-normalized OD600 growth (temperature: 15°C, 48 h) | plate-normalized OD600 growth (temperature: 37°C, 24 h)
O=C1Nc2ccc(Br)cc2C12CC(c1ccc(F)cc1)=NC(=S)N2c1ccccc1C(F)(F)F (stereo unspecified) | 0.247 | 0.618
Cc1cc(N=C(N)N=C(N)N)no1 | 0.242 | 0.635
Cn1ccnc1SCC(=O)Nc1nccs1 | 0.254 | 0.623
Ic1ccc(I)s1 | 0.259 | 0.62
O=C(O)CC(NS(=O)(=O)Cc1ccccc1)c1cccc([N+](=O)[O-])c1 (stereo unspecified) | 0.244 | 0.621
Cc1ccc(NC(=O)C(=O)NCCN2CCN(C(=O)c3ccccc3)CC2)cc1 | 0.221 | 0.63
c1ccc(CN2CCC(n3nnc4cccnc43)CC2)cc1 | 0.224 | 0.626
COCc1cc(C)nc2sc3c(c12)N(C(C)=O)C(c1ccc(F)cc1)NC3=O (stereo unspecified) | 0.234 | 0.611
Cc1ccoc1C(=O)Nc1ccc2ccccc2c1 | 0.249 | 0.588
CCCCCCCCCCOc1ccc(C(=O)N/N=C/c2ccc(OC)cc2)cc1 | 0.229 | 0.632
Cc1cscc1S(=O)(=O)c1ccc(Cl)cc1 | 0.241 | 0.616
C[C@]12CC[C@H](O)CC1=CCC1C2CC[C@]2(C)/C(=N/NC(N)=O)CCC12 (stereo partly specified) | 0.249 | 0.631
O=C1CC(c2cccs2)Cc2nc(NCCN3CCOCC3)ncc21 (stereo unspecified) | 0.259 | 0.618
CCOc1cc(/C=N/NC(=Nc2ccccc2)c2ccccn2)ccc1O | 0.221 | 0.629
N#Cc1c(N)nc2c(c1-c1cccs1)CCCCC2 | 0.265 | 0.639
CCOC(=O)c1c(CN2CCOCC2)n(C)c2ccc(OS(=O)(=O)c3ccc(C)cc3)cc12 | 0.244 | 0.619
O=C(NCc1csc(-c2cccs2)n1)C1=Cc2ccccc2OC1 | 0.243 | 0.593
COc1ccccc1N1C(=O)c2ccc(N)cc2C1=O | 0.241 | 0.598
Cc1ccc(S(=O)(=O)Oc2cc(=O)n(C)c3ccccc23)cc1 | 0.225 | 0.653
CCOC(=O)COc1nc(-c2cccs2)cc(C(F)(F)F)n1 | 0.255 | 0.59
Cc1ccc(C2=Nc3ccccc3N=C(C(Cl)Cl)C2)cc1 | 0.25 | 0.629
CCCCCCCCOc1ccc(C(CC(N)=O)C(=O)O)cc1 (stereo unspecified) | 0.241 | 0.619
COc1cc(OC)nc([S+](C)[O-])n1 (stereo unspecified) | 0.242 | 0.631
O=C1c2ccccc2C(=O)C1c1ccc2ccccc2c1 | 0.238 | 0.613
Cc1ccc(S(=O)(=O)Nc2nnc(C)c(/C=C/c3ccc4ccccc4c3)n2)cc1 | 0.249 | 0.633
COc1ccc2c(c1)CCCN2C(=O)NC(=O)c1c(F)cccc1Cl | 0.242 | 0.627
S=C(Nc1cccnc1)N1CCc2ccccc21 | 0.23 | 0.626
CCN(CC)C(=O)NC(=O)c1c(C)cc(Cl)nc1Cl | 0.243 | 0.63

Ordered by heavy-atom count (rising): some entries from above.
Compound | plate-normalized OD600 growth (temperature: 15°C, 48 h) | plate-normalized OD600 growth (temperature: 37°C, 24 h)
c1ccc(CN2CCC(n3nnc4cccnc43)CC2)cc1 | 0.224 | 0.626
CCCCCCCCOc1ccc(C(CC(N)=O)C(=O)O)cc1 (stereo unspecified) | 0.241 | 0.619
Cc1ccc(NC(=O)C(=O)NCCN2CCN(C(=O)c3ccccc3)CC2)cc1 | 0.221 | 0.63

From the supplement of paper PMC4371806
